Results: paper doi:10.1101/142943
These are yes or no findings as the source states them, for the method shown. Binding seen in cells or lysates may run through a third protein. A result given as binding can be weak or reduced; the word gives no strength.

The chains behind the UniProt entries cited, without tags or fusion partners. Where a name states a change or a piece, a line headed by the entry shows the natural chain unless it says otherwise.
UniProt O75030: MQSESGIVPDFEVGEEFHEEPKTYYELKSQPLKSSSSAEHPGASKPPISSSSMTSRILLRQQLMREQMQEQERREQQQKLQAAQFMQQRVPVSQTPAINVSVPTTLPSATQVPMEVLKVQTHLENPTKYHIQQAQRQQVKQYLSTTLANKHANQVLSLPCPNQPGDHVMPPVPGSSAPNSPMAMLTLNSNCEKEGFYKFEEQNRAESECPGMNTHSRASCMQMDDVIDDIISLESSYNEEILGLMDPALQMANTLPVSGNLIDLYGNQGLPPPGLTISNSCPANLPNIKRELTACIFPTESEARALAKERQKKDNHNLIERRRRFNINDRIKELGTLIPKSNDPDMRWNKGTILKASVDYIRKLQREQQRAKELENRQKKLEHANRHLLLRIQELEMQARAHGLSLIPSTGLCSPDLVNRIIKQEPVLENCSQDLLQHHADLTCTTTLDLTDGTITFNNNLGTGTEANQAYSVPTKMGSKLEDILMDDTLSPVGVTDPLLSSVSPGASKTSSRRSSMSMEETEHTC
UniProt Q01860: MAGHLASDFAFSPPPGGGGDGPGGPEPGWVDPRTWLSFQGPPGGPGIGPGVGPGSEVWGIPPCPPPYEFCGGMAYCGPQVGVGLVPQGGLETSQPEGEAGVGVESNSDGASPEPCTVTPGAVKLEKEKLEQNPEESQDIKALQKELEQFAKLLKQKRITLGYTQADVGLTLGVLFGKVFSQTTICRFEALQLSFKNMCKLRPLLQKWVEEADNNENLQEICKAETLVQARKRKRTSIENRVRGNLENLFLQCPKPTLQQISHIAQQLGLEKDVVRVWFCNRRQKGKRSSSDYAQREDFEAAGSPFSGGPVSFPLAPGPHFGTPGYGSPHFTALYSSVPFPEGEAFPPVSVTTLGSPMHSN

Biological target: MITF (endogenous in WM3682 melanoma cells) (human (endogenous in WM3682)) (UniProt O75030)
Assay: co-IP

- binding: binds
Substance: OCT4-Flag (expressed in WM3682 cells) (from UniProt Q01860 1-360)
